PubChem BioAssay AID1508597, Cure First | 2020
This is an unselected part of the about 2,100 reagents, in one setting of the screen. 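Calls flag viability under 80% in either arm, not effects specific to rucaparib; the reference for percent is not stated.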 No sequences are given here. The record does not give: the 100% reference.

Assay: 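Survival screen with siRNA in ovarian cancer cells derived from patients, with or without rucaparib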 (primary screen)
Cells: human ovarian carcinoma lines grown from tumours: OCI-P5x (papillary serous) and OCI-C5x (clear cell)
Knock-down reagent: siRNA pool against human genes, 1.25 pmol siRNA per well
Time to read-out: 72 h or 96 h, depending on the cell culture
Challenge: rucaparib 20 µM (about IC30) or vehicle, present until read-out
Rucaparib or vehicle: Vehicle
Cell line: OCI-P5x (serous)
Measured: 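Luminescent ATP-based viability assay read 72 or 96 h after transfection, depending on culture, given as normalised percent viability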
Direction: viability, normalised: higher = more viable cells remaining
Rule for the call: 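Active when normalised viability falls below 80 percent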
Meaning of the calls: active = viability under 80%; inactive = viability 80% or more

gene | technical replicate | viability, normalised (%) | activity call
NANOG | 1 | 63.7 | active
NANOG | 2 | 69.1 | active
NANOG | 3 | 86.7 | inactive
NUAK1 | 1 | 76.3 | active
NUAK1 | 2 | 75.7 | active
NUAK1 | 3 | 80 | inactive
AGK | 1 | 69.5 | active
AGK | 2 | 81 | inactive
AGK | 3 | 75.7 | active
RAD51 | 1 | 67.9 | active
RAD51 | 2 | 81.8 | inactive
RAD51 | 3 | 61.7 | active

Continued; the last 2 above are carried over.
gene | technical replicate | viability, normalised (%) | activity call
RAD51 | 2 | 81.8 | inactive
RAD51 | 3 | 61.7 | active
TGFBR2 | 1 | 108 | inactive
TGFBR2 | 2 | 88.8 | inactive
TGFBR2 | 3 | 114 | inactive
PCNA | 1 | 57.4 | active
PCNA | 2 | 53.5 | active
PCNA | 3 | 68.5 | active
RASA3 | 1 | 85.1 | inactive
RASA3 | 2 | 87.9 | inactive
RASA3 | 3 | 108 | inactive
STK35 | 1 | 75.2 | active
STK35 | 2 | 62.9 | active
STK35 | 3 | 63.5 | active
